Experimental data: PMC12648486, “A LisH-domain protein interaction map reveals a Lis1-ARIH2-dynein regulatory axis” (iScience, 2025)
Results are given in words; binding and its absence hold for the method and conditions named. For some of these results: In cells and extracts the contact can be indirect. Some results given as binding are weak or reduced against the parent protein; the word gives no strength. For some of these results: Sequences can lack the tags named with a protein.

By UniProt entry, the sequences of proteins in these tests, tags left out. Where a name states a change or a piece, a line headed by the entry shows the natural chain unless it says otherwise.
UniProt Q13098: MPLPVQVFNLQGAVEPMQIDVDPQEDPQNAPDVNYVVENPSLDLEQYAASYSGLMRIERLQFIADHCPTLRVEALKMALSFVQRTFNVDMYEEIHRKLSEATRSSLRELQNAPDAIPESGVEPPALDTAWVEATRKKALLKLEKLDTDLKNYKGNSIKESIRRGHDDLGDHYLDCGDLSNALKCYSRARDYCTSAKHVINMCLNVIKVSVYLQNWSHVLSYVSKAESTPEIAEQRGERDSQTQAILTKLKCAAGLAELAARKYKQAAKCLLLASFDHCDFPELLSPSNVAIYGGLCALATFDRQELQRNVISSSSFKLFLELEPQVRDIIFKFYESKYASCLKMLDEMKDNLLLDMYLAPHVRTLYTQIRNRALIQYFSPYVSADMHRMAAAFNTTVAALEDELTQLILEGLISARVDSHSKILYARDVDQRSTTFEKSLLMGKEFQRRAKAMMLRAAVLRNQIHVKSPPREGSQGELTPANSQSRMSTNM
UniProt Q9Y4X5: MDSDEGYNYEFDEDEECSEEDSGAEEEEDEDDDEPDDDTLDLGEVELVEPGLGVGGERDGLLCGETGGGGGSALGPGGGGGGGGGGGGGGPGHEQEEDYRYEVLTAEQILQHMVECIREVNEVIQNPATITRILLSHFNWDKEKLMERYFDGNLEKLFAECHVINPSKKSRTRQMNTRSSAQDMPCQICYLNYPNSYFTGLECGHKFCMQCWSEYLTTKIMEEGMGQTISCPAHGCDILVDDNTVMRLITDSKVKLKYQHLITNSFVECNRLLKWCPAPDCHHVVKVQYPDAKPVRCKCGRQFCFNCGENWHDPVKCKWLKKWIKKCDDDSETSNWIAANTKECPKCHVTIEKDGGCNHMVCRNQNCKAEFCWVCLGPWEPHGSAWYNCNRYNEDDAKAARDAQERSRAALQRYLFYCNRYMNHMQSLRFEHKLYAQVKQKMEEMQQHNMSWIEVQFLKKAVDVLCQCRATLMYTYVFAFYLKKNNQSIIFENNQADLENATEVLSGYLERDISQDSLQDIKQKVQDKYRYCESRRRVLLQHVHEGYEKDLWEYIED
UniProt O95376: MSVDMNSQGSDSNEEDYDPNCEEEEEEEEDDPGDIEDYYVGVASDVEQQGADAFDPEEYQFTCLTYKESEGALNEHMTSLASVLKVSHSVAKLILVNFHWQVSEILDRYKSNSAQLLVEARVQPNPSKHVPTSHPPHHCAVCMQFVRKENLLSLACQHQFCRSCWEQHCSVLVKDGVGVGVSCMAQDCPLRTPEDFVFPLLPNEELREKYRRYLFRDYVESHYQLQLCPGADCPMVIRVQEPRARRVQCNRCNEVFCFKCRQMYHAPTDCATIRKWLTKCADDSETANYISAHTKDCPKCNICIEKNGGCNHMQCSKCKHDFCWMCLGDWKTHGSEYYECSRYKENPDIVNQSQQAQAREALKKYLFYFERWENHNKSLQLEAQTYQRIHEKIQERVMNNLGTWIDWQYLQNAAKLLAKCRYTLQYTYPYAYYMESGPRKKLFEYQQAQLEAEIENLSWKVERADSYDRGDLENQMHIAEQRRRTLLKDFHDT
UniProt Q13619: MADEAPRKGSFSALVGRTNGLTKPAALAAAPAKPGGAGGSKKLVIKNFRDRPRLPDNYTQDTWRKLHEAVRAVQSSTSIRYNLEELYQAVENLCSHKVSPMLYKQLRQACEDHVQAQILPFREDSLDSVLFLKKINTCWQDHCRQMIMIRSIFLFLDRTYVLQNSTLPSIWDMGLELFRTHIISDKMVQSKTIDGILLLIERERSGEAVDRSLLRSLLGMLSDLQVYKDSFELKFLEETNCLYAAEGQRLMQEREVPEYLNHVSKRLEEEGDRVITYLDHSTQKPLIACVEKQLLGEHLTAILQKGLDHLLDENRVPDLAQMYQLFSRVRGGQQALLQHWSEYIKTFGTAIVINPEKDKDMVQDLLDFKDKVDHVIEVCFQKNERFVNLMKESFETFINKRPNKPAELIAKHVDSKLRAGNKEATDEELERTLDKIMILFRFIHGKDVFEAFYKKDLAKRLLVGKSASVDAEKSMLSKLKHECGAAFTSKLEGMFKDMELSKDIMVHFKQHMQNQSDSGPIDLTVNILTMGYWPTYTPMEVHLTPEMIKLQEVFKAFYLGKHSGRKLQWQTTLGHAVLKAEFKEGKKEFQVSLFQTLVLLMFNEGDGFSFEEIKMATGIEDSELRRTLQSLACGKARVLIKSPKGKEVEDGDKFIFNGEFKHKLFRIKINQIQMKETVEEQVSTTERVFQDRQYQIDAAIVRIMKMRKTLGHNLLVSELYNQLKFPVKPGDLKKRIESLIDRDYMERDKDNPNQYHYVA
UniProt Q14999: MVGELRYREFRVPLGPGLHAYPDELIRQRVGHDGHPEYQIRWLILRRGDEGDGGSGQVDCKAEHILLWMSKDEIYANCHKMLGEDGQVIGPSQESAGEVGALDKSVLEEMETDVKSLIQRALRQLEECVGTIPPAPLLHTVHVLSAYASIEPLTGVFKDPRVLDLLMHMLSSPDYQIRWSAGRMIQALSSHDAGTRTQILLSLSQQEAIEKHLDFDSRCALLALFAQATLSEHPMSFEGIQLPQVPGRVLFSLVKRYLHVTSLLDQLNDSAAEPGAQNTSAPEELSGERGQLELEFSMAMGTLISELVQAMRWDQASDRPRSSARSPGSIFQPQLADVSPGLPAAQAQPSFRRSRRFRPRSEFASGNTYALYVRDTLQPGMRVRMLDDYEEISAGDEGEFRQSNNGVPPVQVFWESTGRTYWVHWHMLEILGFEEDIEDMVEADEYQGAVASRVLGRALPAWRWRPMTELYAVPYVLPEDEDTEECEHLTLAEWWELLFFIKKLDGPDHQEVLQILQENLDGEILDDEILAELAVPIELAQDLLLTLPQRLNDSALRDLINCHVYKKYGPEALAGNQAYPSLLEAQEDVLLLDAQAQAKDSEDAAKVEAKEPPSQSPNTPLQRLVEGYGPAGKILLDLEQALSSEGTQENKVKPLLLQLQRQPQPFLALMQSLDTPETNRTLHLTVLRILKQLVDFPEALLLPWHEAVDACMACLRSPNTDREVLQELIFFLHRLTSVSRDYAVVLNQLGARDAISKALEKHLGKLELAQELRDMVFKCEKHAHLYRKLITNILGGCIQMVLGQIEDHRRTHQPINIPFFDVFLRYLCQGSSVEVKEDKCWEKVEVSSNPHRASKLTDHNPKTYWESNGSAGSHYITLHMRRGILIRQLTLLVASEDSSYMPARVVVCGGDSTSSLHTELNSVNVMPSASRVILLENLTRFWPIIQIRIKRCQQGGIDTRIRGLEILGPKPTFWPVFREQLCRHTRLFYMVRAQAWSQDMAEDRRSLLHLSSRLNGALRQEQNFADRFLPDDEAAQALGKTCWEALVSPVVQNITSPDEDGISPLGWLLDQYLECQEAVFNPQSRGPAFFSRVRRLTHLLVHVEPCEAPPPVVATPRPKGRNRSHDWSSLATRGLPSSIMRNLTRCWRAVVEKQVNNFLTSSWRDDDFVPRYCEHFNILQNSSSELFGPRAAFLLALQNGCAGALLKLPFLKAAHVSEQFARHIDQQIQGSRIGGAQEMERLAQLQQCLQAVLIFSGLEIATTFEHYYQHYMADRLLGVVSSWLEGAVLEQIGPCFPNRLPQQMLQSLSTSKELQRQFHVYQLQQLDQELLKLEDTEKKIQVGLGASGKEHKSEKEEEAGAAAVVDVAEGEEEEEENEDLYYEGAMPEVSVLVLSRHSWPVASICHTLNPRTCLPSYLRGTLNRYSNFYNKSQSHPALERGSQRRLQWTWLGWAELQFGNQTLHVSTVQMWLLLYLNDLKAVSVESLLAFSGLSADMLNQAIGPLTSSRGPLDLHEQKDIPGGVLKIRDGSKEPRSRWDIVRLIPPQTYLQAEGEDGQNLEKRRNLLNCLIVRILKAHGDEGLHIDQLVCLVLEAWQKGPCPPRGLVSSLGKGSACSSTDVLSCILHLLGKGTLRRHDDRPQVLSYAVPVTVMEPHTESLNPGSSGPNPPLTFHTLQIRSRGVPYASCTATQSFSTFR

Key:
[1] = molecular target: T1, Lis1, exogenously expressed (Figures S4A-S4D) (human) (UniProt P43034); test: pull-down; exogenously expressed proteins in HEK 293T cells; legends of Figures S4A-S4D not shown, beads and tags not told
T1 sequence: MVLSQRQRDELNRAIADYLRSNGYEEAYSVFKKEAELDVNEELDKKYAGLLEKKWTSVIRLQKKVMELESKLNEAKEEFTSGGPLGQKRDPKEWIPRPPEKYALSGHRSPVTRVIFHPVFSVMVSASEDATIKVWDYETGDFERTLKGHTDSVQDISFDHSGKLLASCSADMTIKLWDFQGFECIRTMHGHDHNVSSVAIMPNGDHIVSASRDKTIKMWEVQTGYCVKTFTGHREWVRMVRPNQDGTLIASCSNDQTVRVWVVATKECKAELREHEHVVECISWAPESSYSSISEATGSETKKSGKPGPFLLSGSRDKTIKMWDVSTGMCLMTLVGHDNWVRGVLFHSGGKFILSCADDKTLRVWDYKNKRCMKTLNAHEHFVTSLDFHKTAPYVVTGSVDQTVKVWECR

[2] = molecular target: GST-CSN1 (UniProt Q13098); test: pull-down; bacterially purified recombinant GST-tagged protein incubated with purified MBP-ARIH2; eluates immunoblotted with MBP antibody; both purified
[3] = molecular target: T2, GST-CSN7A (UniProt Q9UBW8); test: as above
T2 sequence: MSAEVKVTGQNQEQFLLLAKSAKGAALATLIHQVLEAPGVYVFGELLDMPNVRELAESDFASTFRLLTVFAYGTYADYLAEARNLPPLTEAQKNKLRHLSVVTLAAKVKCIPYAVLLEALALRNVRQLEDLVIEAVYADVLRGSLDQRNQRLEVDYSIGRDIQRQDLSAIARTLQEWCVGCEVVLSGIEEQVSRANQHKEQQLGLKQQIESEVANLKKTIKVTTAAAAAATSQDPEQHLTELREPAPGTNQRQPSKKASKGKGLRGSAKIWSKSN

[4] = molecular target: T3, SFB-Lis1 WT (human) (UniProt P43034); test: pull-down; HEK 293T cells co-transfected with an SFB-tagged and a Myc-tagged protein; lysate (NETN buffer) incubated with S-protein beads, 2 h at 4 °C; immunoblot with Myc antibody
T3 sequence: T1 sequence

[5] = molecular target: ARIH1 (endogenous) (human (endogenous in HEK293T)) (UniProt Q9Y4X5); test: co-IP; endogenous proteins; HEK293T lysates (NETN buffer) immunoprecipitated with IgG, ARIH1 or ARIH2 antibody on Protein G Sepharose, 2 h at 4 °C; western blot
[6] = molecular target: ARIH2 (endogenous) (human (endogenous in HEK293T)) (UniProt O95376); test: as above
[7] = molecular target: SFB ARIH2 WT (UniProt O95376); test: pull-down; HEK 293T cells co-transfected with an SFB-tagged and a Myc-tagged protein; lysate (NETN buffer) incubated with S-protein beads, 2 h at 4 °C; immunoblot with Myc antibody

With “ARIH2, exogenously expressed (Figures S4A-S4E) (from UniProt O95376 1-493) (enzyme)” the binding [1] was “binds”.

For “MBP-ARIH2 (from UniProt O95376 1-493) (enzyme)”, the binding [2] was “binds” and the binding [3] was “binds”.

In the case of “Cul4A, exogenously expressed (Figures S4A-S4D) (from UniProt Q13619 1-759)”, the binding [1] is reported as “binds”.

With “Myc-ARIH2 (from UniProt O95376 1-493) (enzyme)” the binding [4] was “binds”.

With “ARIH1, exogenously expressed (Figures S4A-S4D) (from UniProt Q9Y4X5 1-557) (enzyme)” the binding [1] was “binds”.

In the case of “Cul7, exogenously expressed (Figures S4A-S4D) (from UniProt Q14999 1-1698)”, the binding [1] is reported as “binds”.

B1: Lis1 (endogenous) (protein, UniProt P43034 1-410)
chain: T1 sequence
For B1, the binding [5] was “binds” and the binding [6] was “binds”.

B2: Myc-Lis1 (protein, UniProt P43034 1-410)
chain: T1 sequence
With B2 the binding [7] was “binds”.
